Results are given in words; binding and its absence hold for the method and conditions named. Binding calls can cover weak binding; strength is not graded here.
How the values were obtained:
[1] = biological target: T1, α3β1 integrin (UniProt P26006 33-1051; P05556 21-798); experiment: HCE cell adhesion, inhibited by function-blocking mAbs against α3 and β1 integrin subunits
T1 construct: whole, on cells; Never used as a purified protein; It is always the receptor on HCE cells in adhesion assays; also called integrin α3β1; functional receptor for βig-h3

Protein sequences, listed by entry. Tags and fused reporters are not part of them. Lines headed by an entry give the natural chain unless they say otherwise; changes in a name come on top.
UniProt P26006: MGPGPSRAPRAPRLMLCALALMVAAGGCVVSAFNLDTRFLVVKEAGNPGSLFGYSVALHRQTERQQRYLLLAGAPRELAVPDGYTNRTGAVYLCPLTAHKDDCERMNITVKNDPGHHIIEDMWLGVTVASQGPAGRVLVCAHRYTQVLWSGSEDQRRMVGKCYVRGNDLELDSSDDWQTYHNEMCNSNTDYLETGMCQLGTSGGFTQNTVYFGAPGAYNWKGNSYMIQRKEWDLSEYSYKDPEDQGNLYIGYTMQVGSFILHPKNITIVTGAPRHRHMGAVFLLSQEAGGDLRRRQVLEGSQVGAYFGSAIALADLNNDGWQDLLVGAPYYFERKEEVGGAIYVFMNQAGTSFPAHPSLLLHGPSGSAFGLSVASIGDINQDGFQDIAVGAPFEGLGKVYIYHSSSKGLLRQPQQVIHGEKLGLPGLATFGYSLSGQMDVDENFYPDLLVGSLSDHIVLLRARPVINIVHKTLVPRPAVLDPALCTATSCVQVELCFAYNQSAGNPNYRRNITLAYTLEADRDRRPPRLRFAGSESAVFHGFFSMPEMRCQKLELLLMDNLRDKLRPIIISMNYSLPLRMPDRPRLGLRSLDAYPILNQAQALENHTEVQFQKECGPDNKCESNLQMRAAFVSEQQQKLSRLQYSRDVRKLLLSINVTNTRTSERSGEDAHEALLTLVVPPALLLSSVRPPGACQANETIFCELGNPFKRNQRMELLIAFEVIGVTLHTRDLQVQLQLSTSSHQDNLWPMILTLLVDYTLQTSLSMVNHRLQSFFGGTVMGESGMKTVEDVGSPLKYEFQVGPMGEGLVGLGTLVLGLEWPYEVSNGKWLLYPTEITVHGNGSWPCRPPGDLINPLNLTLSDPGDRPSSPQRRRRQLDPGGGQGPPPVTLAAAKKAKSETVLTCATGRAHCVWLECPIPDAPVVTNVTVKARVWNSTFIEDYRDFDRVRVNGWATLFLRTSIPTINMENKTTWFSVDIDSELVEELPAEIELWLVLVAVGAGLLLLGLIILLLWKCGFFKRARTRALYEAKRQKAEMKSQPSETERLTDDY
UniProt Q15582: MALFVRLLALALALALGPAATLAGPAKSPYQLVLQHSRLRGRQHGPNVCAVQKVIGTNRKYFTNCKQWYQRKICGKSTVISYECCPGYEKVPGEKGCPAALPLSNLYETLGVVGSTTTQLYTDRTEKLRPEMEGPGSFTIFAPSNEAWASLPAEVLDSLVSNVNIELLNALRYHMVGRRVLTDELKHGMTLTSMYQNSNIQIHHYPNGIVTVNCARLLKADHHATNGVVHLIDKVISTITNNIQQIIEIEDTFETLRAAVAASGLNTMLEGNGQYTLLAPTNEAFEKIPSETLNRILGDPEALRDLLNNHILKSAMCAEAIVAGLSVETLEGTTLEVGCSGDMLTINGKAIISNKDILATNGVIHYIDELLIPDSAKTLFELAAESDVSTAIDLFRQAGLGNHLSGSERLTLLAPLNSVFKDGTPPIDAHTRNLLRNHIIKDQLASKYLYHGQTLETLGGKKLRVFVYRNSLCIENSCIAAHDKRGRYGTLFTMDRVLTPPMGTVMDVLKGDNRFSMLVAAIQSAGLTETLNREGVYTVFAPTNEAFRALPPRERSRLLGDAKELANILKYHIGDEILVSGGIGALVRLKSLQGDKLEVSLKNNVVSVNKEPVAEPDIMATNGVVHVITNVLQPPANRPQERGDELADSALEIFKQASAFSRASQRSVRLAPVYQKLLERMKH

[2] = biological target: T1, α3β1 integrin; experiment: HCE cell adhesion to coated domain, suppressed by antibodies against α3 and β1 integrin subunits
[3] = biological target: T1, α3β1 integrin; experiment: HCE cell adhesion to coated domain, inhibited by function-blocking mAbs against α3 and β1 integrin subunits

Row | binding [1] | binding [2] | binding [3] | Substance
1 | binds | binds | binds | recombinant 4th fas-1 domain protein βig-h3 D-IV (from UniProt Q15582)
2 | binds | binds | binds | recombinant 2nd fas-1 domain protein βig-h3 D-II (from UniProt Q15582)

— patent publication US20030175885A1 (REGEN BIOTECH, published 2003)
